The series deals with DnaA (Bacillus subtilis) (UniProt P05648). The series is described as follows: cryo-EM structure. The settings on record: ATP; scaffold annealing in 30 mM HEPES-KOH pH 8, 100 mM K acetate, 5 mM Mg acetate; strand separation assay at 20 C; recombinant protein; protein details: His14-SUMO removed.

Protein sequences, listed by entry. Tags and fused reporters are not part of them. Lines headed by an entry give the natural chain unless they say otherwise; changes in a name come on top.
UniProt P05648: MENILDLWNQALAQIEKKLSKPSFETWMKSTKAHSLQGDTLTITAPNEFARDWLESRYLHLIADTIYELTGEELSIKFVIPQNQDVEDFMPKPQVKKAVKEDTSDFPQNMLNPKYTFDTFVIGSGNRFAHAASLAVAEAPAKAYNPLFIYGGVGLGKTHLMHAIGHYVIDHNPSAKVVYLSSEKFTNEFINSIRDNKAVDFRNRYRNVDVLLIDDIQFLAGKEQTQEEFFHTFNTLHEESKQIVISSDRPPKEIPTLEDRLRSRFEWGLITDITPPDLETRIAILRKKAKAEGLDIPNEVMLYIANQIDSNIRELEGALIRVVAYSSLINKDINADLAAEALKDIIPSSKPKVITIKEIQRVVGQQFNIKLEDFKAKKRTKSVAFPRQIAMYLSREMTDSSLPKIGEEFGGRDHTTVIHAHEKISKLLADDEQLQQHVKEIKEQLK

For at least one entry, the source does not settle the construct or the ends of the probe.

With “TAGTAGAAGTAATAGTAGGGCCTGTGGATTTGTGGATAAGT / ACTTATCCACAAATCCACAGGCCC [BUS tailed scaffold (DnaA-box#6, box#7, ssDNA DnaA-trios)]”, the binding result is recorded as “binds”.
